According to paper PMC11892261:
These are yes or no findings as the source states them, for the method shown. Binding seen in cells or lysates may run through a third protein. Some results given as binding are weak or reduced against the parent protein; the word gives no strength.

Protein sequences, listed by entry. Tags and fused reporters are not part of them. Lines headed by an entry give the natural chain unless they say otherwise; changes in a name come on top.
UniProt P14618: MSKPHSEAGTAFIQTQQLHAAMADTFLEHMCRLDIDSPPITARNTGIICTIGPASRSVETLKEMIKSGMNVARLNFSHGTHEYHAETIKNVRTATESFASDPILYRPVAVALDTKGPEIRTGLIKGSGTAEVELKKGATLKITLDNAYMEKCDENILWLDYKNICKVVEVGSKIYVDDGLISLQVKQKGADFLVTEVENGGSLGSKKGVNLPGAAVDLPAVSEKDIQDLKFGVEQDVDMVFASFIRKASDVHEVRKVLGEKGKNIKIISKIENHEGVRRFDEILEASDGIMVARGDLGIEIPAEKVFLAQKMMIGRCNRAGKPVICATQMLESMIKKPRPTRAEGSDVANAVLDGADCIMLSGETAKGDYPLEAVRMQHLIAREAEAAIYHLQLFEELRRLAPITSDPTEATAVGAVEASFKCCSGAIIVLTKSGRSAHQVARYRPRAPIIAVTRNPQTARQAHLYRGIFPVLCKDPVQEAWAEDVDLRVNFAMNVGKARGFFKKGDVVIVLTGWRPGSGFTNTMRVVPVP

Experiments:
Flag-tagged PKM2-S406A = Flag-tagged PKM2-S406A (UniProt P14618); test: co-IP; anti-Flag M2 Sepharose beads on lysates of MDA-MB-231 and BT-549 cells overexpressing the Flag-tagged protein; endogenous partner found by blot; IgG as negative control
[1] = target: PKM2-Flag (Flag-tagged PKM2-WT) (UniProt P14618); test: as above

B1: NONO (non-POU domain-containing octamer-binding protein), endogenous (protein, UniProt Q15233 1-471)
chain: MQSNKTFNLEKQNHTPRKHHQHHHQQQHHQQQQQQPPPPPIPANGQQASSQNEGLTIDLKNFRKPGEKTFTQRSRLFVGNLPPDITEEEMRKLFEKYGKAGEVFIHKDKGFGFIRLETRTLAEIAKVELDNMPLRGKQLRVRFACHSASLTVRNLPQYVSNELLEEAFSVFGQVERAVVIVDDRGRPSGKGIVEFSGKPAARKALDRCSEGSFLLTTFPRPVTVEPMDQLDDEEGLPEKLVIKNQQFHKEREQPPRFAQPGSFEYEYAMRWKALIEMEKQQQDQVDRNIKEAREKLEMEMEAARHEHQVMLMRQDLMRRQEELRRMEELHNQEVQKRKQLELRQEEERRRREEEMRRQQEEMMRRQQEGFKGTFPDAREQEIRMGQMAMGGAMGINNRGAMPPAPVPAGTPAPPGPATMMPDGTLGLTPPTTERFGQAATMEGIGAIGGTPPAFNRAAPGAEFAPNKRRRY
binding (Flag-tagged PKM2-S406A): binds
binding [1]: binds
